Data as given in PubChem BioAssay AID1259308 (NCATS, 2017)
This is one part, drawn at random, of about 59,000 reagents tested. About 1,510 of all reagents (2.6%) were called active. 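Calls use total luciferase alone and ignore viability, so some active siRNAs may act by altering cell number.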 Entries without a mark were called inactive. The numbers tell different reagents against one gene apart. Further read-outs or replicates are left out here. No sequences are given here.

Purpose: 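Candidate targets for better recombinant protein yield in mammalian cells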 (primary screen)
System: human HEK293 embryonic kidney cells stably expressing firefly luciferase (HEK-CMV-Luc2-Hygro)
Reagents: single siRNA against human genes, 0.8 pmol siRNA per well
Time to read-out: 72 h
Read-out: 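Reporter luminescence and viable-cell signal on separate replicate plates, given as percent of non-targeting control and median/MAD z-scores, plus per-cell luciferase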
Direction: total luciferase, z-score and total luciferase, % of control: higher = more reporter protein produced
Call rule: 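An siRNA counts as active if its total luciferase robust z-score exceeds 3; genes with two or more such siRNAs out of three were retested with fresh siRNAs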
Meaning of the calls: active = raised luciferase; inactive = no rise

After knock-down of CDX1 (caudal type homeobox 1) #1 the results were total luciferase, z-score 0.127; total luciferase, % of control 84.4.
For CDX1 (caudal type homeobox 1) #2 the deposit lists total luciferase, z-score 0.445; total luciferase, % of control 90.7.
Against CDX1 (caudal type homeobox 1) #3, the entry reads total luciferase, z-score 1.54; total luciferase, % of control 113.
Against TMEM225 (transmembrane protein 225) #1, the values are total luciferase, z-score -0.619; total luciferase, % of control 69.6.
TMEM225 (transmembrane protein 225) #2 gave total luciferase, z-score -0.58; total luciferase, % of control 70.4.
For TMEM225 (transmembrane protein 225) #3 the deposit lists total luciferase, z-score 0.361; total luciferase, % of control 89.1.
With knock-down of TAF5 (TATA-box binding protein associated factor 5) #1 the results were total luciferase, z-score -0.431; total luciferase, % of control 73.3.
Against TAF5 (TATA-box binding protein associated factor 5) #2 the deposit lists total luciferase, z-score 1.28; total luciferase, % of control 107.
TAF5 (TATA-box binding protein associated factor 5) #3 showed total luciferase, z-score 0.522; total luciferase, % of control 92.3.
NINJ1 (ninjurin 1) #1 gave total luciferase, z-score -1.48; total luciferase, % of control 52.4.
For NINJ1 (ninjurin 1) #2, the values are total luciferase, z-score -0.525; total luciferase, % of control 71.4.
NINJ1 (ninjurin 1) #3 gave total luciferase, z-score -2.26; total luciferase, % of control 36.9.
KRT34 (keratin 34) #1 showed total luciferase, z-score 0.228; total luciferase, % of control 86.4.
After knock-down of KRT34 (keratin 34) #2, the record shows total luciferase, z-score -0.418; total luciferase, % of control 73.6.
Depletion of KRT34 (keratin 34) #3 gave: total luciferase, z-score 0.378; total luciferase, % of control 89.4.
USP2 (ubiquitin specific peptidase 2) #1 gave total luciferase, z-score -0.333; total luciferase, % of control 75.3.
With knock-down of USP2 (ubiquitin specific peptidase 2) #2, the record shows total luciferase, z-score 2.59; total luciferase, % of control 133.
Knock-down of USP2 (ubiquitin specific peptidase 2) #3 resulted in: total luciferase, z-score 0.422; total luciferase, % of control 90.3.
LOC729973 #1 showed total luciferase, z-score 1.82; total luciferase, % of control 118.
With knock-down of LOC729973 #2, the screen gave total luciferase, z-score 0.182; total luciferase, % of control 85.5.
Against LOC729973 #3 the deposit lists total luciferase, z-score -0.321; total luciferase, % of control 75.5.
Against OGA (O-GlcNAcase) #1, the entry reads total luciferase, z-score 1.54; total luciferase, % of control 113.
Knock-down of OGA (O-GlcNAcase) #2 came out at: total luciferase, z-score -0.989; total luciferase, % of control 62.2.
For OGA (O-GlcNAcase) #3 the deposit lists total luciferase, z-score -0.105; total luciferase, % of control 79.8.

2 neighbouring reagents from above, for reference:
USP2 (ubiquitin specific peptidase 2) #1 — total luciferase, z-score = -0.333; total luciferase, % of control = 75.3
USP2 (ubiquitin specific peptidase 2) #2 — total luciferase, z-score = 2.59; total luciferase, % of control = 133

The results go on:
Depletion of DUSP21 (dual specificity phosphatase 21) #1 gave: total luciferase, z-score -0.442; total luciferase, % of control 73.1.
Depletion of DUSP21 (dual specificity phosphatase 21) #2 gave: total luciferase, z-score -0.905; total luciferase, % of control 63.9.
DUSP21 (dual specificity phosphatase 21) #3 showed total luciferase, z-score 0.026; total luciferase, % of control 82.4.
After knock-down of ZBTB7A (zinc finger and BTB domain containing 7A) #1, the record shows total luciferase, z-score -0.655; total luciferase, % of control 68.9.
ZBTB7A (zinc finger and BTB domain containing 7A) #2 gave total luciferase, z-score 0.0841; total luciferase, % of control 83.6.
After knock-down of ZBTB7A (zinc finger and BTB domain containing 7A) #3, the screen gave total luciferase, z-score 0.28; total luciferase, % of control 87.5.
AADACL2 (arylacetamide deacetylase like 2) #1 gave total luciferase, z-score -1.1; total luciferase, % of control 60.
For AADACL2 (arylacetamide deacetylase like 2) #2, the entry reads total luciferase, z-score 1.23; total luciferase, % of control 106.
Silencing of AADACL2 (arylacetamide deacetylase like 2) #3 came out at: total luciferase, z-score 0.277; total luciferase, % of control 87.4.
Against CRLF3P1 (CRLF3 pseudogene 1) #1 the deposit lists total luciferase, z-score 0.704; total luciferase, % of control 95.9.
Against CRLF3P1 (CRLF3 pseudogene 1) #2, the entry reads total luciferase, z-score 0.0613; total luciferase, % of control 83.1.
CRLF3P1 (CRLF3 pseudogene 1) #3 scored total luciferase, z-score -0.484; total luciferase, % of control 72.3.
ZNF731P (zinc finger protein 731, pseudogene) #1 showed total luciferase, z-score -0.122; total luciferase, % of control 79.5.
Silencing of ZNF731P (zinc finger protein 731, pseudogene) #2 came out at: total luciferase, z-score 0.554; total luciferase, % of control 92.9.
Depletion of ZNF731P (zinc finger protein 731, pseudogene) #3 came out at: total luciferase, z-score 1.15; total luciferase, % of control 105.
Depletion of CSPG4P5 (chondroitin sulfate proteoglycan 4 pseudogene 5) #1 came out at: total luciferase, z-score -0.582; total luciferase, % of control 70.3.
CSPG4P5 (chondroitin sulfate proteoglycan 4 pseudogene 5) #2 gave total luciferase, z-score 0.197; total luciferase, % of control 85.8.
With knock-down of CSPG4P5 (chondroitin sulfate proteoglycan 4 pseudogene 5) #3, the record shows total luciferase, z-score 0.398; total luciferase, % of control 89.8.
